Measured values published in PMC11899265.
Results are given in words; binding and its absence hold for the method and conditions named. In cells and extracts the contact can be indirect. Here binding means that the protein was enriched with, or labelled near, the bait; the list need not be complete.

By UniProt entry, the sequences of proteins in these tests, tags left out.
UniProt Q96D59: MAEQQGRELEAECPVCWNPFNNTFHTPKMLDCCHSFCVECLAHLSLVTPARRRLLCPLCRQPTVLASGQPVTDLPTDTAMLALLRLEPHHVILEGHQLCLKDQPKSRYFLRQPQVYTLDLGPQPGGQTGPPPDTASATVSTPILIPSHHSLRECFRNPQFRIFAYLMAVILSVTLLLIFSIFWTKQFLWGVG
UniProt P14618: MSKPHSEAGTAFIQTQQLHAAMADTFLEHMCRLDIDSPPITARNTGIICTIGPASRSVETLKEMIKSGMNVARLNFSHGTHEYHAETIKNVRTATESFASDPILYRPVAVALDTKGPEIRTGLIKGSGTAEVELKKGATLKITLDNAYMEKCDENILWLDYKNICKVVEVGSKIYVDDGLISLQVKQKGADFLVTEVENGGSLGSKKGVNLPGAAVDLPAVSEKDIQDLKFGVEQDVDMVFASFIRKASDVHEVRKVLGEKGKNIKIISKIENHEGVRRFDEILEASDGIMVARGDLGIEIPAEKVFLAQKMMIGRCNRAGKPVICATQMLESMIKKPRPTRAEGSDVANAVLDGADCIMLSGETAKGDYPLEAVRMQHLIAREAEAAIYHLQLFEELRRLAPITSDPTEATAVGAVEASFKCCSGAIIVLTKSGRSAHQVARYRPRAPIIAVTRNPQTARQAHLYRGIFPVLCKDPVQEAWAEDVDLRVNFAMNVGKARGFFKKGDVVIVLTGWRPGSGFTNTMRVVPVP

Biological target: Ring finger protein 183 (RNF183), Flag-tagged (UniProt Q96D59)
Assay: affinity purification with mass spectrometry; HPC cells in normal glucose transfected with PCMV3-Flag-RNF183 or PCMV3-Flag; Co-IP with anti-Flag M2 affinity gel, then LC-MS/MS on a Q Exactive mass spectrometer

binding: binds
Substance: M2 pyruvate kinase (PKM2) (from UniProt P14618 1-531)
